# These are yes or no findings as the source states them, for the method shown. In cells and extracts the contact can be indirect. Some entries that bind do so weakly or less than the wild type.
# Amino acid sequences for entries named in this document (tags omitted). Residues count along the entry.
# UniProt Q05397: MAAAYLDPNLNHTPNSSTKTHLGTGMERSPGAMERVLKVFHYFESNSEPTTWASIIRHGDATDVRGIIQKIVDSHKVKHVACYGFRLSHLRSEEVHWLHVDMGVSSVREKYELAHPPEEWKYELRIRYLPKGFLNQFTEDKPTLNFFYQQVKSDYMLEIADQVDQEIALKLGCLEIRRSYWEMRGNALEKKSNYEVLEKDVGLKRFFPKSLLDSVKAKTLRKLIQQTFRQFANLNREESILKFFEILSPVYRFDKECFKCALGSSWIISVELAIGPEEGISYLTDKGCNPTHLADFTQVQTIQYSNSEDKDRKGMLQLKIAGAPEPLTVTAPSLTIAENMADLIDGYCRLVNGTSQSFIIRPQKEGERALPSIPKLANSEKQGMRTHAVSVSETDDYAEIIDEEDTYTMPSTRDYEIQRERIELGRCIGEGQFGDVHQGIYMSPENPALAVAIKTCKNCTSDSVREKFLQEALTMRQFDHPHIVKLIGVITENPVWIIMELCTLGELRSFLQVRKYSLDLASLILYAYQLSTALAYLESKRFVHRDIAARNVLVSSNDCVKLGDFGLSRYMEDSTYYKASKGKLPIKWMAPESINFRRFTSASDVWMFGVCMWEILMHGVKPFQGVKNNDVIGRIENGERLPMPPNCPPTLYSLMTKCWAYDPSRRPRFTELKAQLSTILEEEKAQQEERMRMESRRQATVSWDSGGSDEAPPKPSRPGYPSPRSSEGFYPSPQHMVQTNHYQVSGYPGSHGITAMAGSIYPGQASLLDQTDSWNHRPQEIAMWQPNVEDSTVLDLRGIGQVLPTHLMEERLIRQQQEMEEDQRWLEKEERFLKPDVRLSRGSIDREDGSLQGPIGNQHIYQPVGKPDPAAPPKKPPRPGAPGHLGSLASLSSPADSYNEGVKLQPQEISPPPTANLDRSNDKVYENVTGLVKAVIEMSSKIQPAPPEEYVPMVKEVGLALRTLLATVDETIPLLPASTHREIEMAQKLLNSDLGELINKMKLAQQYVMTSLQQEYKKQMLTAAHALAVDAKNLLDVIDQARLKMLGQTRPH
# UniProt Q9NZQ7, residues 19-290: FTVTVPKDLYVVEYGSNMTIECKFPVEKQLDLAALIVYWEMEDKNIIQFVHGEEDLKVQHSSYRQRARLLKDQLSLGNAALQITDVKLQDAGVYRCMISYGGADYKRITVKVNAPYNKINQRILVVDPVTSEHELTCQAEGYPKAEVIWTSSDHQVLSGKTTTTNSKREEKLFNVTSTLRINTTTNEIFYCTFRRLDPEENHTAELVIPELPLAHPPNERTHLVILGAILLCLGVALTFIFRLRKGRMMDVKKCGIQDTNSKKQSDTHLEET
# Legend:
# [1] = molecular target: focal adhesion kinase (FAK), endogenous in BT-549 cells (human (endogenous in BT-549)) (UniProt Q05397); assay: proximity ligation; Duolink PLA in fixed, permeabilized BT-549 cells; anti-PD-L1 (rabbit) plus anti-FAK (mouse); anti-FAK alone as negative control
# [2] = molecular target: FLAG-tagged PD-L1 (SFB-tagged PD-L1) (UniProt Q9NZQ7); assay: co-IP; HEK293A cells transfected with MYC-tagged FAK and SFB/FLAG-tagged PD-L1, alone or together; 1% NP-40 lysis buffer; IP with anti-FLAG (blot anti-MYC) or anti-MYC (blot anti-FLAG)
# [3] = molecular target: PD-L1-NanoLuc fusion (PD-L1-NL) (UniProt Q9NZQ7); assay: co-IP; HEK293A-PD-L1-NL stable cells transfected with MYC-tagged FAK; 1% NP-40 lysis buffer; IP with anti-MYC (blot anti-PD-L1) or anti-PD-L1 (blot anti-FAK), IgG as control
# [4] = molecular target: programmed death-ligand 1 (PD-L1), endogenous in BT-549 cells (human (endogenous in BT-549)) (UniProt Q9NZQ7); assay: co-IP; endogenous proteins; about 1 mg BT-549 lysate; IP with 2 ug IgG (control) or rabbit monoclonal anti-PD-L1; blot with mouse monoclonal anti-FAK
# [5] = molecular target: MYC-tagged FAK (focal adhesion kinase) (UniProt Q05397); assay: co-IP; HEK293A-PD-L1-NL stable cells transfected with MYC-tagged FAK; 1% NP-40 lysis buffer; IP with anti-MYC (blot anti-PD-L1) or anti-PD-L1 (blot anti-FAK), IgG as control
substance,measurement,setting,value
"programmed death-ligand 1 (PD-L1), endogenous in BT-549 cells (from UniProt Q9NZQ7 19-290)",binding,[1],binds
MYC-tagged FAK (focal adhesion kinase) (from UniProt Q05397 1-1052) (enzyme),binding,[2],binds
same,binding,[3],binds
"focal adhesion kinase (FAK), endogenous in BT-549 cells (from UniProt Q05397 1-1052) (enzyme)",binding,[4],binds
PD-L1-NanoLuc fusion (PD-L1-NL) (from UniProt Q9NZQ7 19-290) (ligand),binding,[5],binds

# — paper PMC12562877
